Experimental data reported in patent publication US10336832.
These are yes or no findings as the source states them, for the method shown. Binding can be weak; no strength is given.

Key:
[1] = target: human prekallikrein (human); experiment: binding category
[2] = target: human prekallikrein (human); experiment: characteristics
[3] = target: human pKal-AEBSF complex (human); experiment: Biacore

binding [1] | binding [2] | binding [3] | Binder
binds | binds | – | M35-G04 (Fab, V domains shown) VH: EVQLLESGGGLVQPGGSLRLSCAASGFTFSYYHMSWVRQAPGKGLEWVSVISPSGGSTKYADSVKGRFTISRDNSKNTLYLQMNSLRAEDTAVYYCARGGSSDYAWGSYRRPYYFDYWGQGTLVTVSS VL: DIQMTQSPATLSLSPGERATLSCRASQSVSSYLAWYQQKPGQAPRLLIYDASNRATGIPARFSGSGSGTDFTLTISSLEPEDFAVYYCQQRSNWPRGFTFGPGTKVDIK
binds | binds | – | M6-D09 (Fab, V domains shown) VH: EVQLLESGGGLVQPGGSLRLSCAASGFTFSFYYMVWVRQAPGKGLEWVSVIYPSGGITVYADSVKGRFTISRDNSKNTLYLQMNSLRAEDTAVYYCARDKWAVMPPYYYYAMDVWGQGTTVTVSS VL: DIQMTQSPSSLSASVGDRVTITCRASQSIRNYLNWYQQKPGKAPNLLIYAASTLQSGVPARFSGSGSGTDFTLTISSLQPEDFATYYCQQLSGYPHTFGQGTKLEIK
– | – | binds | M29-D09 (Fab, V domains shown) VH: EVQLLESGGGLVQPGGSLRLSCAASGFTFSWYTMVWVRQAPGKGLEWVSYIYPSGGATFYADSVKGRFTISRDNSKNTLYLQMNSLRAEDTAVYYCAMGSYDYIWGFYSDHWGQGTLVTVSS VL: QSALTQPPTVSVSPGQTARITCSGNKLGDKYVAWYQQKPGQSPMLVIYQDTKRPSRVSERFSGSNSANTATLSISGTQALDEADYYCQAWDSSIVIFGGGTRLTVL
